In PubChem BioAssay AID2685 (National Center for Advancing Translational Sciences (NCATS), 2010):
The list shows a part of the results. Shown are side measurements of this screen, not its main read-out; they come without a call. Most of these compounds were active or inconclusive in the main read-out, so they are no random draw. Potencies come from curve fits of mixed quality, noted in brackets.

Experiment: qHTS Assay for Lipid Storage Modulators in Drosophila S3 Cells;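 for cell number change: cells counted by Cell Tracker Red CMTPX staining in the red channel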
Conditions: BODIPY lipid droplet fluorescence, 18-24 h; for cell number change: measured here: cell count max response, cells fed with added oleic acid
Method in brief: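 Laser-scanning cytometry quantifies lipid droplet accumulation (500–530 nm total intensity; droplet/cell object ratio) in oleic acid-fed (400 uM added) Drosophila S3 cells treated with a concentration series. 20 uM Triacsin C defined 100% inhibition.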

[1] = measured here: lipid fluorescence (Fed channel) AC50, cells fed with added oleic acid
[2] = measured here: cell number channel AC50, cells fed with added oleic acid

| Compound | cell number change [%] | AC50 [1] | AC50 [2] |
| --- | --- | --- | --- |
| CN(c1ccc(OC(=O)c2ccc(-n3cncn3)c([N+](=O)[O-])c2)cc1)S(=O)(=O)c1ccccc1 | 11.9 | 2.06 µM [falling, partial curve] | – |
| COc1ccc(NC(=O)Cn2cc(C(=O)C3CC3)c3ccccc32)cc1 | 79.1 | – | – |
| COc1ccc(C(C[N+](=O)[O-])c2c(C)[nH]n(-c3ccccc3)c2=O)cc1 (configuration not stated) | -61.1 | 16.4 µM [falling, partial curve] | 16.4 µM [falling, partial curve] |
| COc1ccc(/C=C(\NC(=O)c2ccco2)C(=O)N2CCOCC2)cc1 | 26.9 | – | – |
| O=C(NC(=S)Nc1ccc(Cl)cn1)C(c1ccccc1)c1ccccc1 | -20.7 | 14.6 µM [falling, single point] | – |
| Cc1cc(/C=C(\C#N)C(=O)N2CCOCC2)c(C)n1C1CCCC1 | 4.21 | 0.13 µM [falling, full curve, poor fit] | – |
| CN1CCN(CC(=O)N(C)c2nc(-c3ccccc3)cs2)CC1 | 2.45 | – | – |
| CC1CC(C)CN(c2ccc(C(=O)OCC(=O)NC3CCCc4ccccc43)cc2[N+](=O)[O-])C1 (configuration not stated) | -1.12 | 32.6 µM [falling, partial curve, poor fit] | – |
| COc1ccc(CN(CC(=O)NC2CCCCC2)C(=O)CCC(=O)Nc2nccs2)cc1 | -11.4 | – | – |
| CC(C)c1ccc(NC(=O)NC2(C(=O)NCc3cccnc3)CCCCC2)cc1 | 4.03 | 0.82 µM [rising, partial curve, poor fit] | – |
| COc1cc(CN2CCC(C(=O)N3CCCC(C)C3)CC2)cc(OC)c1O (configuration not stated) | -12.9 | – | – |
| CC(=O)c1cccc(Nc2nc(-c3sc(N)nc3C)cs2)c1 | -75.5 | 0.651 µM [rising, single point] | 11.6 µM [falling, partial curve] |
| CCN1CCN(CCNC(=O)c2ccc(CS(=O)c3ccc(Br)cc3)o2)CC1 (configuration not stated) | – | – | 0.13 µM [falling, full curve, poor fit] |
| COCCCNC(=O)/C(C#N)=C/c1c(N2CCN(c3ccc(OC)cc3)CC2)nc2c(C)cccn2c1=O | -49.6 | 1.64 µM [falling, full curve] | 11.6 µM [falling, partial curve] |
| CCN(C(=O)CSc1nnc(-c2ccncc2)n1-c1ccccc1)C1CCS(=O)(=O)C1 (configuration not stated) | – | – | 0.00461 µM [falling, full curve, poor fit] |
| CCOC(=O)Cc1csc(NC(=O)c2cc(C)cc(C)c2)n1 | 151 | 2.31 µM [falling, partial curve] | 5.17 µM [falling, single point] |
| Cc1cc(N/N=C/c2cccc(Cl)c2)nc(-n2nc(C)cc2C)n1 | -62.1 | 9.2 µM [falling, partial curve, poor fit] | 29.1 µM [falling, single point] |
| COc1ccccc1N(C(=O)c1ccncc1)c1nc(-c2ccc([N+](=O)[O-])cc2)cs1 | -10.2 | 1.16 µM [rising, full curve, poor fit] | – |
| O=C1CSC(c2cn(-c3ccccc3)nc2-c2cc3ccccc3o2)N1Cc1ccccc1 (configuration not stated) | 167 | 23.1 µM [rising, partial curve] | 3.26 µM [rising, partial curve] |

| Compound | cell number change [%] | AC50 [1] | AC50 [2] |
| --- | --- | --- | --- |
| CCCOc1ccc(C(=O)C(CN2CCOCC2)c2ccccc2)cc1 (configuration not stated) | -36.8 | 18.4 µM [falling, single point] | 16.4 µM [falling, single point] |
| Nc1[nH]n(-c2ccccc2)c(=O)c1N=Nc1ccc2ncsc2c1 | -40.3 | 29.1 µM [falling, single point] | 16.4 µM [falling, single point] |
| COc1ccc(Nc2c([N+](=O)[O-])ccc3c2=NC2(CCCCC2)N=3)cc1 | – | 0.146 µM [falling, full curve, poor fit] | – |
| Cc1ccc(C(=O)OCC(=O)NCc2cccc(Cl)c2)cc1S(=O)(=O)N1CCCCC1 | 49.8 | – | 7.31 µM [rising, partial curve] |
| COC(=O)c1ccc(Sc2nnnn2-c2ccccc2)c([N+](=O)[O-])c1 | -23.3 | 29.1 µM [falling, single point] | – |
| CCn1c(-c2ccc3[nH]c(C)c(C)c3c2)n[nH]c1=S | -15.4 | 0.259 µM [rising, full curve] | – |
| CCC1C(c2ccccc2)N(C)C(c2ccccc2)CC1(O)c1ccccc1 (configuration not stated) | -51.9 | 23.1 µM [falling, single point] | 9.2 µM [falling, partial curve, poor fit] |
| N#C/C(=C/c1ccc(CNC(=O)C(=O)Nc2cc(Cl)cc(Cl)c2)o1)C(=O)NCc1cccnc1 | -3.06 | 32.6 µM [falling, partial curve, poor fit] | – |
| O=S(=O)(Nc1ccc2c(c1)OCCO2)c1ccc(F)cc1 | -37.6 | – | 0.164 µM [falling, full curve, poor fit] |
| COC(=O)c1ccc(CSc2nnc3sc4ccccc4n23)o1 | -10.2 | – | – |
| CSC(SC)=C(C#N)C(=O)c1ccccc1 | -58 | 29.1 µM [falling, single point] | – |
| COc1cccc(/C=N/NC(=S)NCCc2ccccc2)c1OC | 2.93 | – | 6.51 µM [falling, single point] |
| COC(=O)c1c(NC(NC(=O)C(C)C)C(Cl)(Cl)Cl)sc2c1CCCC2 (configuration not stated) | 30.5 | – | 14.6 µM [rising, single point] |
| COCC1CCN(C(=O)C2CCC(=O)N(CCc3cccc(F)c3)C2)CC1 (configuration not stated) | 12.3 | 10.3 µM [rising, partial curve, poor fit] | – |
| NC(=O)c1cc(S(=O)(=O)N2CC=C(c3ccccc3)CC2)cs1 | -8.94 | 29.1 µM [rising, single point] | – |
| CC(C)(C)NC(=O)C12CCC(C)(c3nc4ccccc4nc31)C2(C)C (configuration not stated) | – | 6.51 µM [rising, partial curve] | 2.31 µM [rising, single point] |
| Cc1ccc(CNC(=O)Cn2ncn3cccc3c2=O)cc1 | 28.8 | 29.1 µM [rising, single point] | – |
| O=C(Nc1ccc(F)c(F)c1)C1CCCCC1 | 24.3 | 0.103 µM [falling, full curve, poor fit] | – |
| NC(=O)CC(NC(=O)c1ccccc1)c1ccc(NCCN2CCOCC2)c([N+](=O)[O-])c1 (configuration not stated) | 19.8 | 29.1 µM [rising, single point] | – |

13 entries out of the list, arranged by molar mass, rising:

| Compound | cell number change [%] | AC50 [1] | AC50 [2] |
| --- | --- | --- | --- |
| O=C(Nc1ccc(F)c(F)c1)C1CCCCC1 | 24.3 | 0.103 µM [falling, full curve, poor fit] | – |
| CC(=O)c1cccc(Nc2nc(-c3sc(N)nc3C)cs2)c1 | -75.5 | 0.651 µM [rising, single point] | 11.6 µM [falling, partial curve] |
| COc1cccc(/C=N/NC(=S)NCCc2ccccc2)c1OC | 2.93 | – | 6.51 µM [falling, single point] |
| COC(=O)c1ccc(CSc2nnc3sc4ccccc4n23)o1 | -10.2 | – | – |
| NC(=O)c1cc(S(=O)(=O)N2CC=C(c3ccccc3)CC2)cs1 | -8.94 | 29.1 µM [rising, single point] | – |
| COc1ccc(Nc2c([N+](=O)[O-])ccc3c2=NC2(CCCCC2)N=3)cc1 | – | 0.146 µM [falling, full curve, poor fit] | – |
| COCC1CCN(C(=O)C2CCC(=O)N(CCc3cccc(F)c3)C2)CC1 (configuration not stated) | 12.3 | 10.3 µM [rising, partial curve, poor fit] | – |
| COC(=O)c1c(NC(NC(=O)C(C)C)C(Cl)(Cl)Cl)sc2c1CCCC2 (configuration not stated) | 30.5 | – | 14.6 µM [rising, single point] |
| NC(=O)CC(NC(=O)c1ccccc1)c1ccc(NCCN2CCOCC2)c([N+](=O)[O-])c1 (configuration not stated) | 19.8 | 29.1 µM [rising, single point] | – |
| CCN(C(=O)CSc1nnc(-c2ccncc2)n1-c1ccccc1)C1CCS(=O)(=O)C1 (configuration not stated) | – | – | 0.00461 µM [falling, full curve, poor fit] |
| CC1CC(C)CN(c2ccc(C(=O)OCC(=O)NC3CCCc4ccccc43)cc2[N+](=O)[O-])C1 (configuration not stated) | -1.12 | 32.6 µM [falling, partial curve, poor fit] | – |
| CN(c1ccc(OC(=O)c2ccc(-n3cncn3)c([N+](=O)[O-])c2)cc1)S(=O)(=O)c1ccccc1 | 11.9 | 2.06 µM [falling, partial curve] | – |
| COCCCNC(=O)/C(C#N)=C/c1c(N2CCN(c3ccc(OC)cc3)CC2)nc2c(C)cccn2c1=O | -49.6 | 1.64 µM [falling, full curve] | 11.6 µM [falling, partial curve] |

Continuation:

| Compound | cell number change [%] | AC50 [1] | AC50 [2] |
| --- | --- | --- | --- |
| Cc1ccc(C)c(S(=O)(=O)Nc2ccc3sc(C)nc3c2)c1 | -28.9 | 29.1 µM [falling, single point] | – |
| Cn1c(=O)n(C)c2cc(S(=O)(=O)N3CCCc4ccccc43)ccc21 | -7.73 | 0.82 µM [rising, single point] | – |
| N#Cc1ccc(CSc2ccc(S(=O)(=O)N3CCCC3)cn2)cc1 | -0.937 | 25.9 µM [rising, partial curve, poor fit] | – |
| COc1cc(NS(=O)(=O)c2ccc3c(c2)C(C)(C)C(=O)N3C)cc(OC)c1 | -23.9 | – | – |
| O=C(O)c1cc(-c2ccccc2Cl)n[nH]1 | 7.83 | – | – |
| C=CCN1C(=O)/C(=C/c2ccccc2)S/C1=N/c1nccs1 | -5.31 | 0.116 µM [rising, full curve] | 0.116 µM [falling, full curve, poor fit] |
| CCOCCCNC(=O)c1ccc(C2SCC(=O)N2Cc2ccccc2)cc1 (configuration not stated) | -6.74 | 6.51 µM [rising, single point] | – |
| O=C(OC(c1ccc(NS(=O)(=O)c2ccccc2)cc1)(C(F)(F)F)C(F)(F)F)c1ccccc1 | -50.1 | 18.4 µM [falling, single point] | 2.31 µM [falling, partial curve, poor fit] |
| CC1=CC(C)(C)N(S(=O)(=O)c2ccc(C)cc2)c2ccc(C)cc21 | 2.93 | 0.164 µM [falling, full curve] | – |
| Cc1cc(C)c2oc(-c3ccc(Cl)c(NC(=O)c4ccc(C#N)cc4F)c3)nc2c1 | – | 1.84 µM [rising, partial curve] | – |
| CCOc1cnc(-c2ccc(OC)cc2)o1 | 8.58 | 29.1 µM [rising, single point] | – |
| C[C@@H]1CN(c2c(F)c(N)c3c(=O)c(C(=O)O)cn(C4CC4)c3c2F)C[C@H](C)N1 | -22.6 | 3.26 µM [falling, full curve] | 5.17 µM [falling, partial curve] |
| CC(C)(CNC(=O)c1cc2ccccc2o1)N1CCOCC1 | 3.35 | – | – |
| O=C(Cc1ccc(F)cc1)N(c1ccccc1)C1C=CS(=O)(=O)C1 (configuration not stated) | -8.86 | – | 0.58 µM [falling, single point] |
| O=C(CN1C(=O)C2C3C=CC(C3)C2C1=O)Nc1cccc2c1CCCC2 (configuration not stated) | – | 29.1 µM [falling, single point] | – |
| CCCCn1c(N)c(N(CCC(C)C)C(=O)c2oc3ccc(OCC)cc3c2C)c(=O)[nH]c1=O | 68.5 | – | – |
| C=CCSc1nc2c(c(=O)n(C)c(=O)n2C)n1CC | 9.26 | 29.1 µM [rising, single point] | – |
| CC(C)(C)c1cc(C(=O)NNC(=O)Nc2ccccc2)n(Cc2ccccc2)n1 | -31.7 | 29.1 µM [falling, single point] | 14.6 µM [falling, single point] |
| C=CCN1C(=O)c2ccc(C(=O)N3CCC(C(=O)OCC)CC3)cc2C1=O | -18.9 | – | 0.058 µM [falling, full curve, poor fit] |
